Source: PubChem BioAssay AID1224830 (NIAID, 2016)
The deposit covers about 18,000 reagents; this is a random part of them. Of all reagents, about 2,900 (16%) got an active call. 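Calls are made per well; low scores hint the gene aids the LPS response, high scores that it dampens it.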 Repeated entries: four replicate wells of each siRNA pool. No sequences are given here.

- Assay: 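Genes whose knock-down alters the TNF-alpha reporter response to LPS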 (primary screen)
- Cell system: human THP-1 monocytic leukaemia cells, TNF dual-luciferase reporter clone, PMA-differentiated to macrophage-like cells
- Knock-down reagent: siRNA pool against human genes, 50 nM
- Duration: LPS for 4 h, given about 3 days after siRNA transfection
- Challenge: bacterial LPS (TLR4 ligand), 10 ng/ml
- Detection: 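Ratio of firefly to renilla light, scaled to the plate median and expressed as a robust z-score per replicate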
- Reading the numbers: TNF reporter robust z-score: higher = stronger TNF reporter response to LPS
- Hit rule: 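Each well counts as active if its z-score is over 2.8 or under -1.5; controls are left without a call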

| gene | PubChem SID | TNF reporter robust z-score | Call |
| --- | --- | --- | --- |
| SPRING1 | SID315459464 | -1.12 | inactive |
| SPRING1 | SID315459464 | 0.61 | inactive |
| SPRING1 | SID315459464 | 0.14 | inactive |
| SPRING1 | SID315459464 | -0.78 | inactive |
| NCAPH | SID315455211 | -0.5 | inactive |
| NCAPH | SID315455211 | -0.45 | inactive |
| NCAPH | SID315455211 | -1.06 | inactive |
| NCAPH | SID315455211 | 0.66 | inactive |
| LINC00173 | SID315464733 | 0.52 | inactive |
| LINC00173 | SID315464733 | 0.73 | inactive |
| LINC00173 | SID315464733 | 0.53 | inactive |
| LINC00173 | SID315464733 | 0.02 | inactive |
| PSMG3 | SID315460275 | 1.35 | inactive |
| PSMG3 | SID315460275 | 2.76 | inactive |
| PSMG3 | SID315460275 | 1.64 | inactive |
| PSMG3 | SID315460275 | 3.09 | active |
| PRB4 | SID315450776 | 0.8 | inactive |
| PRB4 | SID315450776 | 1.89 | inactive |
| PRB4 | SID315450776 | 0.2 | inactive |
| PRB4 | SID315450776 | 0.57 | inactive |
| FBXL22 | SID315463706 | -0.2 | inactive |
| FBXL22 | SID315463706 | -0.28 | inactive |
| FBXL22 | SID315463706 | 0.94 | inactive |
| FBXL22 | SID315463706 | 2.04 | inactive |
| SLC47A1 | SID315457528 | -1.48 | inactive |
| SLC47A1 | SID315457528 | -0.92 | inactive |
| SLC47A1 | SID315457528 | -1.2 | inactive |
| SLC47A1 | SID315457528 | -1.1 | inactive |
| KCTD20 | SID315463352 | 1.09 | inactive |
| KCTD20 | SID315463352 | 1.23 | inactive |
| KCTD20 | SID315463352 | 1.98 | inactive |
| KCTD20 | SID315463352 | 2.29 | inactive |
| POLR3K | SID315456868 | 1.16 | inactive |
| POLR3K | SID315456868 | -0.25 | inactive |
| POLR3K | SID315456868 | 0.77 | inactive |
| POLR3K | SID315456868 | -0.08 | inactive |
| CASP1 | SID315447701 | -0.15 | inactive |
| CASP1 | SID315447701 | 0.15 | inactive |
| CASP1 | SID315447701 | 0.74 | inactive |
| CASP1 | SID315447701 | 0.02 | inactive |
| IL4R | SID315449462 | 1.28 | inactive |
| IL4R | SID315449462 | 0.92 | inactive |
| IL4R | SID315449462 | 0.78 | inactive |
| IL4R | SID315449462 | 0.27 | inactive |
| SIK1 | SID315462436 | -0.31 | inactive |
| SIK1 | SID315462436 | 0.8 | inactive |
| SIK1 | SID315462436 | -0.01 | inactive |
| SIK1 | SID315462436 | -0.85 | inactive |
| HOXA9 | SID315449271 | -1.21 | inactive |
| HOXA9 | SID315449271 | -0.72 | inactive |
| HOXA9 | SID315449271 | -1.08 | inactive |
| HOXA9 | SID315449271 | -0.9 | inactive |
| ZNFX1 | SID315458311 | 0.66 | inactive |
| ZNFX1 | SID315458311 | 0.23 | inactive |
| ZNFX1 | SID315458311 | -0.45 | inactive |
| ZNFX1 | SID315458311 | 0.12 | inactive |
| LIPM | SID315464099 | -0.2 | inactive |
| LIPM | SID315464099 | -1.01 | inactive |
| LIPM | SID315464099 | -1.07 | inactive |
| LIPM | SID315464099 | 0.02 | inactive |
| TMEM139 | SID315461999 | 0.16 | inactive |
| TMEM139 | SID315461999 | 1.4 | inactive |
| TMEM139 | SID315461999 | 0.72 | inactive |
| TMEM139 | SID315461999 | 1.7 | inactive |

No new results follow: an excerpt of the list.
| gene | PubChem SID | TNF reporter robust z-score | Call |
| --- | --- | --- | --- |
| LINC00173 | SID315464733 | 0.73 | inactive |
| LINC00173 | SID315464733 | 0.53 | inactive |
| LINC00173 | SID315464733 | 0.02 | inactive |
| PSMG3 | SID315460275 | 1.35 | inactive |
| PSMG3 | SID315460275 | 2.76 | inactive |
| PSMG3 | SID315460275 | 1.64 | inactive |

The listing continues:
| gene | PubChem SID | TNF reporter robust z-score | Call |
| --- | --- | --- | --- |
| GC | SID315448856 | 0.29 | inactive |
| GC | SID315448856 | 0.97 | inactive |
| GC | SID315448856 | 0.5 | inactive |
| GC | SID315448856 | 0.56 | inactive |
| UGCG | SID315452064 | -1.07 | inactive |
| UGCG | SID315452064 | 1.13 | inactive |
| UGCG | SID315452064 | -0.07 | inactive |
| UGCG | SID315452064 | 0.58 | inactive |
| STXBP3 | SID315451698 | -0.01 | inactive |
| STXBP3 | SID315451698 | -0.16 | inactive |
| STXBP3 | SID315451698 | -0.61 | inactive |
| STXBP3 | SID315451698 | -0.69 | inactive |
| ASCC2 | SID315460218 | 1.48 | inactive |
| ASCC2 | SID315460218 | 1.92 | inactive |
| ASCC2 | SID315460218 | 2.53 | inactive |
| ASCC2 | SID315460218 | 1.17 | inactive |
| MRPL43 | SID315460402 | -0.6 | inactive |
| MRPL43 | SID315460402 | -0.24 | inactive |
| MRPL43 | SID315460402 | -0.04 | inactive |
| MRPL43 | SID315460402 | 0.44 | inactive |
| MYO18A | SID315453133 | -0.38 | inactive |
| MYO18A | SID315453133 | -0.84 | inactive |
| MYO18A | SID315453133 | -1.55 | active |
| MYO18A | SID315453133 | -0.42 | inactive |
| MYO18A | SID315464717 | 1.24 | inactive |
| MYO18A | SID315464717 | 0.48 | inactive |
| MYO18A | SID315464717 | -0.29 | inactive |
| MYO18A | SID315464717 | 1.12 | inactive |
| KRTAP19-4 | SID315463964 | 2.1 | inactive |
| KRTAP19-4 | SID315463964 | 0.4 | inactive |
| KRTAP19-4 | SID315463964 | 0.19 | inactive |
| KRTAP19-4 | SID315463964 | 0.62 | inactive |
| CASP6 | SID315447706 | -1.05 | inactive |
| CASP6 | SID315447706 | -0.47 | inactive |
| CASP6 | SID315447706 | 0.18 | inactive |
| CASP6 | SID315447706 | -0.27 | inactive |
| PLEKHA4 | SID315458535 | 2.01 | inactive |
| PLEKHA4 | SID315458535 | 5.03 | active |
| PLEKHA4 | SID315458535 | 4.84 | active |
| PLEKHA4 | SID315458535 | 1.92 | inactive |
| MAP7 | SID315453004 | 3.2 | active |
| MAP7 | SID315453004 | 0.47 | inactive |
| MAP7 | SID315453004 | -0.89 | inactive |
| MAP7 | SID315453004 | -0.76 | inactive |
| EPM2AIP1 | SID315453618 | 1.63 | inactive |
| EPM2AIP1 | SID315453618 | -0.76 | inactive |
| EPM2AIP1 | SID315453618 | -1.51 | active |
| EPM2AIP1 | SID315453618 | -1.26 | inactive |
